# Assay results taken from patent publication US20050028229A1 (published 2005).
# Sequences of proteins named here, by UniProt entry; tags and fusion partners are left off.
# UniProt P01942: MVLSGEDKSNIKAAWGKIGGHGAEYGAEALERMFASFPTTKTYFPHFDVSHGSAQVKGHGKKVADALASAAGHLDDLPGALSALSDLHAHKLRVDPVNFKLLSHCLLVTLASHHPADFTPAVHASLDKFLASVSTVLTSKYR
# These are yes or no findings as the source states them, for the method shown. In cells and extracts the contact can be indirect. Some results given as binding are weak or reduced against the parent protein; the word gives no strength. Tags and fused reporters may be left off the sequences shown.
# B1: V5-epitope-tagged murine AHSP (protein, UniProt Q9CY02 1-102, looked up, not shown: small tags and cut ends)
# chain: MAPFQSNKDLISTGIKEFNVLLDQQVFDDPLISEEDMVIVVHDWVNLYTNYYKKLVHGEQEEQDRAMTEFQQELSTLGSQFLAKYRTFLKSKEPPSNTLPSS
# Target: hemagglutinin (HA)-tagged murine α-hemoglobin (murine) (UniProt P01942)
# Experiment: co-immunoprecipitation from COS cell extracts, western blot
binder,measurement,value
B1,binding,binds
